Consider one molecule from patent US6372495B1, “Bio-artificial organ containing a matrix having hollow fibers for supplying gaseous oxygen” (Seed Capital Investments-2 (SCI-2) B.V., priority 1998, dated 2002).

The test system of the data set is cytochrome P450. Put plainly: Lidocaine metabolism. Format: in vitro ADME, pig.

The structures appear in SMILES notation. Where a name gives a salt, the structure may show the parent alone.

Take `CCN(CC)CC(=O)Nc1c(C)cccc1C` [lidocaine, Lidocaine-HCl]: under “60 min. incubation, 500 μ/ml, over a period of three days, porcine hepatocytes in bioreactor”, the “lidocaine elimination and subsequent MEGX and Xylidine production” value is recorded as “did not significantly change”. The main lidocaine metabolite result (first two days of culture, porcine hepatocytes in bioreactor) is reported as “Xylidine”. Besides, under “incubation with lidocaine for one hour, porcine hepatocytes”, the “production of the metabolite GX” value is reported as “did not produce detectable levels”.
